The other results are listed elsewhere or left out.
Legend:
Assay in all cases: log2 fold change, soluble protein after heating vs DMSO (PISA); higher = thermal stabilisation; K562 cells, 10 uM, 30 min; active = over 0.2 and 3.5 SD of the protein, either way, in both replicates (recomputed)
[1] = compound: CC1=C(C=C(C=C1)NC(=O)C2=CC(=CC=C2)C(C)(C)C#N)NC3=CC4=C(C=C3)N=CN(C4=O)C
Summary of the method: (§1)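 K562 cells (2×10^6 cells/mL) were treated with 10 μM compound for 30 min, and aliquots were heated for 3 min over 48°C-58°C. Pooled aliquots were extracted in PBS with 0.5% NP-40 at 4°C, and the supernatant after 21,000xg for 90 min was measured by TMTpro 16plex LC-MS/MS with channel sums equalised. Reported thermal stability, relative to control samples and from duplicates, is a log2 fold change.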

By UniProt entry, the sequences of proteins in these tests, tags left out. Where a name states a change or a piece, a line headed by the entry shows the natural chain unless it says otherwise.
UniProt O60884: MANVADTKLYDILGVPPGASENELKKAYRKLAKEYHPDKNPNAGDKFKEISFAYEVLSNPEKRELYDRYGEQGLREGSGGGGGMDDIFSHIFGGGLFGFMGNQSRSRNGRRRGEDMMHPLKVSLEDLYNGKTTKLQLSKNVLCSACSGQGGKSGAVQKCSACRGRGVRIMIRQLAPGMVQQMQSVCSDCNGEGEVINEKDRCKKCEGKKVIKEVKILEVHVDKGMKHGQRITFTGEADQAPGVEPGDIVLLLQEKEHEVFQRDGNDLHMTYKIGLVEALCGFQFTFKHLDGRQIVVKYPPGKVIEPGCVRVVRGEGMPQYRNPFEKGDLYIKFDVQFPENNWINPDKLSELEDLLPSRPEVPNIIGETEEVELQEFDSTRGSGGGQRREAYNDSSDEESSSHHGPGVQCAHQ
UniProt O00273: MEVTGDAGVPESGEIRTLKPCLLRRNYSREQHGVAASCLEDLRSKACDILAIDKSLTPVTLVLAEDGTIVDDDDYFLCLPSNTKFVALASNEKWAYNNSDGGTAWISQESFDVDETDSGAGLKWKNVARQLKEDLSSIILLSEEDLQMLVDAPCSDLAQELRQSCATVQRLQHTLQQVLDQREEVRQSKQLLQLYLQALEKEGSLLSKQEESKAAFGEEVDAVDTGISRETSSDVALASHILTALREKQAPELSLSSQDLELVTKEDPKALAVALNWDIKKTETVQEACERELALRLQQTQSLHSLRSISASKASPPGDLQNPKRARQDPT
UniProt Q9GZP9: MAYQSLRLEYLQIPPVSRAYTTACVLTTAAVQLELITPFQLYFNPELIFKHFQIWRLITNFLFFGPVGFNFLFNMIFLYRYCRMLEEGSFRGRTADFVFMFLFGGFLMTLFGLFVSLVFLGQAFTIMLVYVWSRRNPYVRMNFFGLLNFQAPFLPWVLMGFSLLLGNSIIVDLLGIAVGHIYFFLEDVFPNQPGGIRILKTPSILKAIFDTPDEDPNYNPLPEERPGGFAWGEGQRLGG
UniProt O75911: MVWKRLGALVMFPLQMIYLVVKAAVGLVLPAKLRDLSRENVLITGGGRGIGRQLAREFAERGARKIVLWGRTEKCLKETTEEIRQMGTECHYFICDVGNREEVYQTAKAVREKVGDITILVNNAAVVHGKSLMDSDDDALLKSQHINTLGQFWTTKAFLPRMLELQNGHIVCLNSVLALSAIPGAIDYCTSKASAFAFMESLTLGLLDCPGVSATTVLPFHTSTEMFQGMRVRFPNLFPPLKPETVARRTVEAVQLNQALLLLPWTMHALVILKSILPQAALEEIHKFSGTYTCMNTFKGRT
UniProt Q8NEL9: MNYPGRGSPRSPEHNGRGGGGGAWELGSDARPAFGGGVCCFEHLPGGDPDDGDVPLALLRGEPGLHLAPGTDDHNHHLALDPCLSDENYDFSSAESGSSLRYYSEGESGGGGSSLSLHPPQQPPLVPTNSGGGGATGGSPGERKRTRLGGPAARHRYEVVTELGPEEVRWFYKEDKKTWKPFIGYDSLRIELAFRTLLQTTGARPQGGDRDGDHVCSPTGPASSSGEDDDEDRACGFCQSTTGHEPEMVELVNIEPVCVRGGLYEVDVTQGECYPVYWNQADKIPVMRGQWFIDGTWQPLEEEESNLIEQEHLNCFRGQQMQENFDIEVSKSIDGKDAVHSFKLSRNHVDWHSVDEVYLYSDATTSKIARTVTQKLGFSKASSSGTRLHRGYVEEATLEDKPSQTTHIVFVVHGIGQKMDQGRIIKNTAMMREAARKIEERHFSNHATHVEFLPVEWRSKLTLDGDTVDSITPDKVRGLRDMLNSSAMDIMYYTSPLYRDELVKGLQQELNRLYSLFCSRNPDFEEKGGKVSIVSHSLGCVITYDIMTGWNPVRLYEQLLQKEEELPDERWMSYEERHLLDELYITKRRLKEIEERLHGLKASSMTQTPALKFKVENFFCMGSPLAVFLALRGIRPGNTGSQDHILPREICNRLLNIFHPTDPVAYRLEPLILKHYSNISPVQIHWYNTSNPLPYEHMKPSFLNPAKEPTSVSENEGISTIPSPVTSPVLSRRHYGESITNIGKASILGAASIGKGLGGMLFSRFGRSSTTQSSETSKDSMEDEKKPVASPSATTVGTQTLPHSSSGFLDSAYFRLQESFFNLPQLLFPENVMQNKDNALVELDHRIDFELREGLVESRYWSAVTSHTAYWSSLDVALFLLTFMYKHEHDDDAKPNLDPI
UniProt Q9UPY3: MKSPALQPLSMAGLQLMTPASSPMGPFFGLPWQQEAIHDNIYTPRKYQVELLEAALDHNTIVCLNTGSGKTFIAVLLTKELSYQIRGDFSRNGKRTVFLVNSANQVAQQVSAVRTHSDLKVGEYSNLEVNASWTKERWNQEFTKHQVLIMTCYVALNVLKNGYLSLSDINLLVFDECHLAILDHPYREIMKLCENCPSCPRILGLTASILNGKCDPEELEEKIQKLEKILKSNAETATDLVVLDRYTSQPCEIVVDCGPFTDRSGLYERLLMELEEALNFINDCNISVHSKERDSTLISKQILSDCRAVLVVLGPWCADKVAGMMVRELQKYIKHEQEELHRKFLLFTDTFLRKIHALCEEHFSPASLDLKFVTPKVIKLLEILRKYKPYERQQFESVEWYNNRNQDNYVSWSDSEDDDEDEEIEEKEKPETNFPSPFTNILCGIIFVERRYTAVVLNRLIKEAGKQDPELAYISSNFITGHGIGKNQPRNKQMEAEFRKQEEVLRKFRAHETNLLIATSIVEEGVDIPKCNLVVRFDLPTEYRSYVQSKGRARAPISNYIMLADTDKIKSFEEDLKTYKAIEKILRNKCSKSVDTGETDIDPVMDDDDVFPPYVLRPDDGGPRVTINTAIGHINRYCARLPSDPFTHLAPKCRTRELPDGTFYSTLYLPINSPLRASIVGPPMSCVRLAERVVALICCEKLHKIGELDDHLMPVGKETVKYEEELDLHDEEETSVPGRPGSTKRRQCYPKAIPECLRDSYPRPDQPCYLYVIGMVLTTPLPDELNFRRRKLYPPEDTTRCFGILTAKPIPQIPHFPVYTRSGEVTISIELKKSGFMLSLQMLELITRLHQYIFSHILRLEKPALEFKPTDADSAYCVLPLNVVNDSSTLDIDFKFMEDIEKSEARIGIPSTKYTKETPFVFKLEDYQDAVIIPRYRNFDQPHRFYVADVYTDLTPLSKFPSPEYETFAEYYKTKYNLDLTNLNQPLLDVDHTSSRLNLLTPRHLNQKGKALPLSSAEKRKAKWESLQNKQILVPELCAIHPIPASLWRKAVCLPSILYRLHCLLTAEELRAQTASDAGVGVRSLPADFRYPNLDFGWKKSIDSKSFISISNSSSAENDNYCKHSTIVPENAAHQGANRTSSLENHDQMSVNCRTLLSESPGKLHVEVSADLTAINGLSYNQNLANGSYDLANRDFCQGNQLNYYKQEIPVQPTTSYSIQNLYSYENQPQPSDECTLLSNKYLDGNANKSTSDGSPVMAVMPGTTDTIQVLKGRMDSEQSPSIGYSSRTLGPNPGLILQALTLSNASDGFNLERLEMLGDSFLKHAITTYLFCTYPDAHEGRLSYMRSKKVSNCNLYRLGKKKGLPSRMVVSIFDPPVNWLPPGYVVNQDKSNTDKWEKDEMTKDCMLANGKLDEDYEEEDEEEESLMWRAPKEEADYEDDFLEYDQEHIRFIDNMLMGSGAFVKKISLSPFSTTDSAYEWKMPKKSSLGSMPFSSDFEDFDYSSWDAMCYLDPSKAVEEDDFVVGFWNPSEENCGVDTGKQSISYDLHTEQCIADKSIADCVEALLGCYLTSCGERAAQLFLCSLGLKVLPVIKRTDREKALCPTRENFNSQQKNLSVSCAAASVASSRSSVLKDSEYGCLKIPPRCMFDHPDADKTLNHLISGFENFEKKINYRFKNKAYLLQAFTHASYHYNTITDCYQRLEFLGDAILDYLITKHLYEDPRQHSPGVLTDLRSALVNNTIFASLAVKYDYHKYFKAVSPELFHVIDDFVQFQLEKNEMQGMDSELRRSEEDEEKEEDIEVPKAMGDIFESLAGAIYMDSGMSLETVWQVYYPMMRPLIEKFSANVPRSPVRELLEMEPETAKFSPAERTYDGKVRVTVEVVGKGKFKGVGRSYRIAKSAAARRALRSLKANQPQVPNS
UniProt P23743: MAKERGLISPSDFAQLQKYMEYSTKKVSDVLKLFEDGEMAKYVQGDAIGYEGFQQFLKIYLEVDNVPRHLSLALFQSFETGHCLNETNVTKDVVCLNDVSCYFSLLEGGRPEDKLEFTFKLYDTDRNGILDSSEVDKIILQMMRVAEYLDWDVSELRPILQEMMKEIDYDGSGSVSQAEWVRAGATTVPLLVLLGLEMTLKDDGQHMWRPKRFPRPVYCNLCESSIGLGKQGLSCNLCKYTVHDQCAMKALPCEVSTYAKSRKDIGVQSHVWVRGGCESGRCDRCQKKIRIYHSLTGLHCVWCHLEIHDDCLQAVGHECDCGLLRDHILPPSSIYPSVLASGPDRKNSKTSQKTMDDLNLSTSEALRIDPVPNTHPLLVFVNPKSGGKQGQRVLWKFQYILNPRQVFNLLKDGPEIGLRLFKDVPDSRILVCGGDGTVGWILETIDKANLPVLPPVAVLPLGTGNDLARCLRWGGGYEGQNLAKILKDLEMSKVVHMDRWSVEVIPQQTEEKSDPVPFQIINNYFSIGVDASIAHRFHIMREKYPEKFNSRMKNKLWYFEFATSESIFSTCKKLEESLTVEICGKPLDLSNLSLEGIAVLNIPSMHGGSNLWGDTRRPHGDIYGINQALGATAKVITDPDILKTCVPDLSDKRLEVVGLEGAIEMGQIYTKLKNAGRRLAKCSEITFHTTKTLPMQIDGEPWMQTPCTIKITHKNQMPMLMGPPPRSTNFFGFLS
UniProt Q6P3S1: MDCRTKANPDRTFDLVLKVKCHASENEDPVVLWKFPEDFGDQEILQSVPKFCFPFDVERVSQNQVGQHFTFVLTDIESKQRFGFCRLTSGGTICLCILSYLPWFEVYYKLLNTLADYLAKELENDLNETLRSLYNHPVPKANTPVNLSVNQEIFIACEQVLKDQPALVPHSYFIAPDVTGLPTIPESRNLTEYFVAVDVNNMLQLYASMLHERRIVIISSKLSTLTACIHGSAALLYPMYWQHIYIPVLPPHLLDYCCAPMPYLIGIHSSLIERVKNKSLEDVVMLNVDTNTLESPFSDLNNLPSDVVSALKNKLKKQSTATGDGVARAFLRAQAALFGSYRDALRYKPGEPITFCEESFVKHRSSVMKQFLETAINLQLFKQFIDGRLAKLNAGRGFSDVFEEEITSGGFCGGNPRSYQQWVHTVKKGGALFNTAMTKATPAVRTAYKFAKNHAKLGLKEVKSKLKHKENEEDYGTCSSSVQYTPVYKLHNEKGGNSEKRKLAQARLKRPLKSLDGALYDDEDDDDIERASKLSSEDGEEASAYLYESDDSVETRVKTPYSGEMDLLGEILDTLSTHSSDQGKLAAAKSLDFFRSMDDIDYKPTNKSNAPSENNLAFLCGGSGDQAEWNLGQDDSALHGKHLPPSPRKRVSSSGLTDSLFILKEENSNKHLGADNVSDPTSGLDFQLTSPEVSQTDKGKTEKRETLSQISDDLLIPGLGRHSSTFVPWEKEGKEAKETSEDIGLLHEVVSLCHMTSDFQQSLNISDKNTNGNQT
UniProt Q96GE9: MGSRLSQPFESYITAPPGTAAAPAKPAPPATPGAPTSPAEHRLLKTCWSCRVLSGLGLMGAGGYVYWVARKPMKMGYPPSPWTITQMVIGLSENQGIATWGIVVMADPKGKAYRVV
UniProt Q86Y56: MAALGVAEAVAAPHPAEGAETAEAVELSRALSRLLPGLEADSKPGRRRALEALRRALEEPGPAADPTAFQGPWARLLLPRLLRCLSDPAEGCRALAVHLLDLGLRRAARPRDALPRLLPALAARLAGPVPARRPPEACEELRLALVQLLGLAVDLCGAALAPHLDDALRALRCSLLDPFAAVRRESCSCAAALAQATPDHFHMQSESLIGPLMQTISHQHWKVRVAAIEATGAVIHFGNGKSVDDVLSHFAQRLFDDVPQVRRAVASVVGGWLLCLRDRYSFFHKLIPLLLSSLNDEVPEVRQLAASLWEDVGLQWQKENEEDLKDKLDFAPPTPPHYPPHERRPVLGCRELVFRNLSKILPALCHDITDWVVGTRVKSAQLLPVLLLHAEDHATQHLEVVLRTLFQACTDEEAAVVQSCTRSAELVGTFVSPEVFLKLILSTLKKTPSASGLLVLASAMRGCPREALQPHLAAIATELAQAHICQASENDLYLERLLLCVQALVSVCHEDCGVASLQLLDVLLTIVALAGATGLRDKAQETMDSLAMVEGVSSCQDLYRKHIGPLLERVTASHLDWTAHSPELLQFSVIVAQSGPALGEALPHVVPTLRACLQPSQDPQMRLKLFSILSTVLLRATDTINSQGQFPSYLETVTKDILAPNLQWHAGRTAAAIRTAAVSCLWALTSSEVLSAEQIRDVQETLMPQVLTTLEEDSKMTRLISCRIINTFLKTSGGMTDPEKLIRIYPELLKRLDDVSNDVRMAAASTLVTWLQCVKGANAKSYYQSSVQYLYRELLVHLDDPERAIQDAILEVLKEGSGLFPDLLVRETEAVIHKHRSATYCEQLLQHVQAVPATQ

[2] = compound: CC1=C(C=C(C=C1)NC(=O)C2=CC(=CC=C2)N(C)C)NC(=O)C3=CC=C(C=C3)O
Summary of the method: as §1

[3] = compound: CC1=CC=C(C=C1)SC2=C3C=C(SC3=CN=C2)C(=O)N
Summary of the method: as §1

[4] = compound: CC1=NC(=CC=C1)C2=C(N=C(N2)C(C)(C)C)C3=CC4=NC=CN=C4C=C3
Summary of the method: as §1

Nexturastat A = compound: CCCCN(Cc1ccc(C(=O)NO)cc1)C(=O)Nc1ccccc1 [Nexturastat A]
Summary of the method: as §1

vemurafenib = compound: CCCS(=O)(=O)Nc1ccc(F)c(C(=O)c2c[nH]c3ncc(-c4ccc(Cl)cc4)cc23)c1F [vemurafenib]
Summary of the method: as §1

[5] = compound: CCCS(=O)(=O)Nc1ccc(F)c(C(=O)c2c[nH]c3ncc(Cl)cc23)c1F
Summary of the method: as §1

[6] = compound: CCCc1cc(C)[nH]c(=O)c1CNC(=O)c1cc(-c2ccnc(N3CCN(C)CC3)c2)cc2c1cnn2C(C)C
Summary of the method: as §1

givinostat = compound: CCN(CC)Cc1ccc2cc(COC(=O)Nc3ccc(C(=O)NO)cc3)ccc2c1 [givinostat]
Summary of the method: as §1

barasertib = compound: CCN(CCCOc1ccc2c(Nc3cc(CC(=O)Nc4cccc(F)c4)[nH]n3)ncnc2c1)CCOP(=O)(O)O [barasertib]
Summary of the method: as §1

Measured: log2 fold change

DNAJA2 (UniProt O60884)
inactive: [1] -0.014 | [2] -0.054 | [3] -0.011 | [4] 0.011 | Nexturastat A -0.054 | vemurafenib -0.014 | [5] 0 | [6] -0.022 | givinostat -0.035 | barasertib -0.003

DNA2 (UniProt P51530)
inactive: [1] -0.392 | [3] -0.061 | [4] -0.065 | Nexturastat A 0.307 | vemurafenib 0.008 | [5] 0.046 | barasertib -0.107

DFFA (UniProt O00273)
inactive: [1] -0.009 | [2] 0.009 | [3] -0.007 | [4] 0.043 | Nexturastat A -0.043 | vemurafenib 0.01 | [5] -0.005 | [6] 0.024 | givinostat -0.022 | barasertib 0.008

DDX19B (UniProt Q9UMR2)
inactive: [1] -0.053 | [2] -0.039 | [3] 0.046 | [4] 0.052 | Nexturastat A -0.019 | vemurafenib 0.037 | [5] 0.067 | [6] 0.041 | givinostat 0.034 | barasertib 0.011

DMXL2 isoform 3 (UniProt Q8TDJ6)
inactive: [1] -0.093 | [2] 0.075 | Nexturastat A 0.193 | vemurafenib -0.199 | givinostat 0.225 | barasertib 0.007

DECR2 (UniProt Q9NUI1)
inactive: [1] 0.068 | [3] -0.029 | [4] -0.06 | Nexturastat A -0.056 | vemurafenib 0.128 | [5] -0.031 | [6] 0.029 | givinostat -0.024 | barasertib 0.093

DDX41 (UniProt Q9UJV9)
inactive: [1] -0.012 | [2] 0.115 | [3] -0.004 | Nexturastat A 0.094 | vemurafenib -0.024 | [5] 0.017 | [6] 0.001 | givinostat 0.105 | barasertib -0.076

DDX42 (UniProt Q86XP3)
inactive: [1] 0.006 | [2] -0.184 | [3] 0.13 | [4] 0.06 | Nexturastat A -0.056 | [5] 0.101 | givinostat 0.202 | barasertib 0.106

DENND6A (UniProt Q8IWF6)
inactive: [1] 0.035 | [2] 0.033 | [3] 0.061 | [4] 0.041 | Nexturastat A -0.023 | vemurafenib -0.039 | [5] 0.037 | [6] -0.057 | givinostat 0.076 | barasertib -0.101

DDB1 (UniProt Q16531)
inactive: [1] -0.012 | [2] 0.011 | [3] 0.006 | [4] 0 | Nexturastat A -0.036 | vemurafenib -0.012 | [5] -0.003 | [6] -0.027 | givinostat 0 | barasertib -0.01

DENND4A isoform 2 (UniProt Q7Z401)
inactive: [1] -0.083 | [2] 0.047 | [3] 0.059 | [4] -0.215 | Nexturastat A 0.024 | vemurafenib -0.049 | [5] 0.014 | [6] 0.227 | barasertib 0.301

9 consecutive entries out of the list so far, for reference:
DFFA (UniProt O00273)
inactive: [1] -0.009 | [2] 0.009 | [3] -0.007 | [4] 0.043 | Nexturastat A -0.043 | vemurafenib 0.01 | [5] -0.005 | [6] 0.024 | givinostat -0.022 | barasertib 0.008

DDX19B (UniProt Q9UMR2)
inactive: [1] -0.053 | [2] -0.039 | [3] 0.046 | [4] 0.052 | Nexturastat A -0.019 | vemurafenib 0.037 | [5] 0.067 | [6] 0.041 | givinostat 0.034 | barasertib 0.011

DMXL2 isoform 3 (UniProt Q8TDJ6)
inactive: [1] -0.093 | [2] 0.075 | Nexturastat A 0.193 | vemurafenib -0.199 | givinostat 0.225 | barasertib 0.007

DECR2 (UniProt Q9NUI1)
inactive: [1] 0.068 | [3] -0.029 | [4] -0.06 | Nexturastat A -0.056 | vemurafenib 0.128 | [5] -0.031 | [6] 0.029 | givinostat -0.024 | barasertib 0.093

DDX41 (UniProt Q9UJV9)
inactive: [1] -0.012 | [2] 0.115 | [3] -0.004 | Nexturastat A 0.094 | vemurafenib -0.024 | [5] 0.017 | [6] 0.001 | givinostat 0.105 | barasertib -0.076

DDX42 (UniProt Q86XP3)
inactive: [1] 0.006 | [2] -0.184 | [3] 0.13 | [4] 0.06 | Nexturastat A -0.056 | [5] 0.101 | givinostat 0.202 | barasertib 0.106

DENND6A (UniProt Q8IWF6)
inactive: [1] 0.035 | [2] 0.033 | [3] 0.061 | [4] 0.041 | Nexturastat A -0.023 | vemurafenib -0.039 | [5] 0.037 | [6] -0.057 | givinostat 0.076 | barasertib -0.101

DDB1 (UniProt Q16531)
inactive: [1] -0.012 | [2] 0.011 | [3] 0.006 | [4] 0 | Nexturastat A -0.036 | vemurafenib -0.012 | [5] -0.003 | [6] -0.027 | givinostat 0 | barasertib -0.01

DENND4A isoform 2 (UniProt Q7Z401)
inactive: [1] -0.083 | [2] 0.047 | [3] 0.059 | [4] -0.215 | Nexturastat A 0.024 | vemurafenib -0.049 | [5] 0.014 | [6] 0.227 | barasertib 0.301

Further results:

DERL2 (UniProt Q9GZP9)
inactive: [1] -0.13 | [2] 0.002 | [3] -0.078 | [4] 0.093 | Nexturastat A -0.103 | vemurafenib -0.031 | [5] -0.092 | [6] -0.034 | barasertib 0.056

DHX9 (UniProt Q08211)
inactive: [1] -0.005 | [2] -0.01 | [3] -0.073 | [4] -0.061 | Nexturastat A 0.148 | vemurafenib -0.053 | [5] -0.02 | [6] 0.109 | givinostat 0.06 | barasertib -0.15

DHRS3 (UniProt O75911)
inactive: [1] 0.075 | [2] -0.037 | [3] 0.019 | [4] 0.027 | Nexturastat A -0.037 | vemurafenib -0.078 | [5] -0.04 | [6] -0.035 | givinostat -0.051 | barasertib -0.048

DLAT (UniProt P10515)
inactive: [1] 0.02 | [2] -0.016 | [3] -0.011 | [4] -0.094 | Nexturastat A 0.16 | vemurafenib -0.079 | [5] -0.061 | [6] 0.095 | givinostat 0.095 | barasertib -0.083

DGCR2 (UniProt P98153)
inactive: [1] 0.012 | [2] 0.021 | [3] 0.029 | [4] -0.02 | Nexturastat A -0.078 | vemurafenib 0 | [5] -0.065 | [6] -0.016 | givinostat -0.031 | barasertib -0.011

DDHD1 (UniProt Q8NEL9)
inactive: [1] 0.077 | [2] -0.111 | [3] -0.099 | [4] -0.042 | [5] 0.071 | givinostat -0.081 | barasertib 0.112

DDX4 (UniProt Q9NQI0)
inactive: [1] -0.451 | [2] 0.035 | [3] -0.328 | [4] -0.336 | Nexturastat A 0.263 | vemurafenib -0.569 | [5] -0.447 | [6] 0.327 | givinostat 0.271 | barasertib -0.094

DICER1 (UniProt Q9UPY3)
inactive: [1] 0.033 | [2] -0.036 | [3] 0.026 | Nexturastat A 0.027 | vemurafenib -0.182 | [5] -0.002 | [6] -0.003 | givinostat -0.05 | barasertib -0.095

DIPK2A (UniProt Q8NDZ4)
inactive: [1] 0.007 | [2] -0.053 | [4] 0.009 | vemurafenib 0.066 | givinostat 0.174 | barasertib 0.069

DDX20 (UniProt Q9UHI6)
inactive: [1] 0.08 | [2] 0.041 | [3] 0.056 | [4] -0.137 | Nexturastat A 0.373 | [5] 0.085 | [6] 0.02 | givinostat 0.207 | barasertib 0.068

DGKA (UniProt P23743)
inactive: [1] 0.028 | [2] 0.069 | [3] 0.025 | Nexturastat A 0.116 | vemurafenib -0.404 | [5] 0.06 | [6] -0.217 | givinostat 0.044 | barasertib 0.057

DENND1B (UniProt Q6P3S1)
inactive: [1] 0.039 | [3] -0.084 | [4] 0.174 | Nexturastat A 0.258 | vemurafenib 0.074 | [5] -0.237 | [6] -0.072 | barasertib -0.019

DIDO1 (UniProt Q9BTC0)
inactive: [1] -0.062 | [2] 0.011 | [3] 0.053 | [4] 0.034 | Nexturastat A 0.099 | [5] -0.003 | [6] -0.082 | givinostat 0.109

DENND10 (UniProt Q8TCE6)
inactive: [1] 0.022 | [2] 0.036 | [3] 0.029 | Nexturastat A -0.119 | vemurafenib -0.023 | [5] 0.01 | [6] -0.023 | givinostat 0.131 | barasertib 0.036

DDRGK1 (UniProt Q96HY6)
inactive: [1] 0.016 | [2] -0.024 | [3] -0.051 | [4] -0.009 | Nexturastat A 0.057 | vemurafenib -0.025 | [5] -0.073 | [6] -0.011 | givinostat 0.055 | barasertib -0.042

DHRS7B (UniProt Q6IAN0)
inactive: [1] -0.008 | [2] -0.066 | [3] -0.049 | [4] -0.001 | Nexturastat A 0.003 | vemurafenib 0.066 | [5] 0.06 | [6] 0.04 | givinostat -0.029 | barasertib -0.004

DMAC1 (UniProt Q96GE9)
inactive: [1] -0.173 | [2] 0.041 | [3] 0.116 | [4] 0.005 | Nexturastat A -0.071 | vemurafenib -0.18 | [5] -0.035 | [6] -0.04 | givinostat -0.179 | barasertib 0.074

DNAAF5 (UniProt Q86Y56)
inactive: [1] 0.013 | [2] 0.087 | [3] 0.092 | [4] -0.053 | Nexturastat A 0.534 | vemurafenib -0.088 | [5] -0.011 | [6] 0.159 | barasertib -0.011

DHPS (UniProt M0R1T2)
inactive: [1] 0.118 | barasertib 0.11

DLC1 (UniProt Q96QB1)
inactive: [4] -0.509 | Nexturastat A 0.063 | vemurafenib 0.006 | [6] 0.047

DESI1 (UniProt Q6ICB0)
inactive: [3] -0.016 | vemurafenib -0.182 | [5] -0.1 | givinostat 0.06 | barasertib 0.201

Source: the supplement of paper PMC10849652
